These are yes or no findings as the source states them, for the method shown. Binding can be weak; no strength is given.

The record followed here is article PMC10252469.

This assay addresses OsMRG702 (MORF-RELATED GENE702), yeast two-hybrid fusion (rice (Oryza sativa L.)) (UniProt Q2R2X7). As to the kind of experiment: two-hybrid; pGADT7 and pGBKT7 constructs in yeast AH109 and YH187, mated; interaction observed on SD-Leu/-Trp and SD-His/-Leu/-Trp/-Ade solid medium, 4 days at 30 °C.

Take “OsMRGBP, yeast two-hybrid fusion (from UniProt Q6L528)”: the binding result is recorded as “binds”.
